This is one part of the list. These are further read-outs of the screen, such as a control signal, another cell line or another target. No call is given for them. The list favours compounds with an active or inconclusive main result. Words in brackets tell the shape of the fitted curve; partial curves, single points and poor fits give uncertain potencies.
Assay: qHTS Assay to Find Inhibitors of Chronic Active B-Cell Receptor Signaling
Conditions: ABC-DLBCL IkBa-CBG/CBR reporter, luminescence ratio (green luciferase fused to IkBa over red control in TMD8 lymphoma cells), 4 h
Method in brief: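 TMD8 human ABC-DLBCL cells with doxycycline-inducible IκBα–green luciferase fusion and unfused red luciferase, in 0.5% FBS medium; compounds up to 46 uM, 4 h at 37C. Green/red luminescence ratio, filter-overlap corrected, fitted to concentration-response curves.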

[1] = measured here: CBR red luminescence, cell number
[2] = measured here: IkBa-CBG green luminescence

SMILES | AC50 [1] | AC50 [2]
CCOC(=O)CCSc1nc(C)c2ccccc2n1 | 20.6 µM [rising, partial curve] | –
COc1cc(OC)c(NC(=O)C2CC(=O)N(c3ccc4c(c3)OCCO4)C2)cc1Cl (centres undefined) | 0.082 µM [rising, full curve, poor fit] | –
COc1ccccc1N1CCN(CC(=O)c2ccc(F)cc2)CC1 | 35.5 µM [falling, single point] | –
O=[N+]([O-])c1cccc2ccc(/C=C/c3ccc(Cl)cc3)nc12 | 0.92 µM [rising, full curve] | –
Cc1[nH]ccc2c1[nH]c1cc(=O)ccc12 | 35.5 µM [falling, single point] | –
CCCCOC(=O)c1nc(Cl)c(Cl)c(N)c1Cl | 13 µM [rising, single point] | –
CC(C)C(=O)NNc1nc2ccccc2s1 | 6.51 µM [rising, full curve] | –
CC(=O)Nc1ccc(Nc2ncnc3c2cnn3-c2ccccc2)cc1 | 0.355 µM [falling, full curve, poor fit] | –
COc1ccc(/C=N/NC(=O)CN(CCc2ccccc2)S(=O)(=O)c2ccc(NC(C)=O)cc2)cc1OC | 4.61 µM [rising, full curve] | –
C/C(N)=C(/C#N)C(=O)COC(=O)CCSc1ccccc1Cl | 6.51 µM [rising, full curve, poor fit] | –
NC(=O)c1oc2ccccc2c1NC(=O)c1ccco1 | 11.6 µM [falling, partial curve, poor fit] | –
Oc1[nH]c2ccc(Br)cc2c1N=NC(=S)Nc1ccc(F)cc1 | 0.562 µM [rising, partial curve, poor fit] | 3.16 µM [falling, partial curve, poor fit]
COc1cc(/C=C2\SC(=S)N(NS(=O)(=O)c3ccccc3)C2=O)ccc1O | 12.6 µM [rising, single point] | –
CCOC(=O)C1CCCN(C(=O)CC(c2ccccc2)c2ccccc2)C1 (centres undefined) | 29.1 µM [falling, single point] | –
CCOC(=O)CC(=O)Nc1ccc(Br)cc1C(=O)O | 22.4 µM [falling, single point] | –
Cc1nc(NC(=O)/C=C/c2ccccc2)sc1C(=O)N1CCCCC1 | 11.2 µM [falling, partial curve] | –
CN(C)c1ccc(/C=N\Nc2ccccn2)cc1 | 1.26 µM [rising, full curve, poor fit] | –
O=C(CNC(=O)c1ccccc1)OCc1cccc(Br)c1 | 12.6 µM [rising, single point] | –
Cn1c2ccccc2c2cc(C(=O)NNS(=O)(=O)c3ccc(F)cc3)sc21 | 23.1 µM [falling, single point] | –
COc1cccc2c(=O)n(CC(=O)Nc3ccc(F)cc3)ccc12 | 29.1 µM [rising, single point] | –
CCOC(=O)c1c(NC(=O)COC(=O)C2CCC2)sc(C(=O)N(C)C)c1C | 6.51 µM [rising, single point] | –
Fc1ccc(-c2nc3ccccc3[nH]2)cc1 | 35.5 µM [falling, single point] | –

Part of the list above in order of number of heavy atoms, rising:
SMILES | AC50 [1] | AC50 [2]
Cc1[nH]ccc2c1[nH]c1cc(=O)ccc12 | 35.5 µM [falling, single point] | –
CC(C)C(=O)NNc1nc2ccccc2s1 | 6.51 µM [rising, full curve] | –
CCOC(=O)CC(=O)Nc1ccc(Br)cc1C(=O)O | 22.4 µM [falling, single point] | –
NC(=O)c1oc2ccccc2c1NC(=O)c1ccco1 | 11.6 µM [falling, partial curve, poor fit] | –
O=C(CNC(=O)c1ccccc1)OCc1cccc(Br)c1 | 12.6 µM [rising, single point] | –
C/C(N)=C(/C#N)C(=O)COC(=O)CCSc1ccccc1Cl | 6.51 µM [rising, full curve, poor fit] | –
Oc1[nH]c2ccc(Br)cc2c1N=NC(=S)Nc1ccc(F)cc1 | 0.562 µM [rising, partial curve, poor fit] | 3.16 µM [falling, partial curve, poor fit]
COc1cccc2c(=O)n(CC(=O)Nc3ccc(F)cc3)ccc12 | 29.1 µM [rising, single point] | –
Cc1nc(NC(=O)/C=C/c2ccccc2)sc1C(=O)N1CCCCC1 | 11.2 µM [falling, partial curve] | –
CC(=O)Nc1ccc(Nc2ncnc3c2cnn3-c2ccccc2)cc1 | 0.355 µM [falling, full curve, poor fit] | –
Cn1c2ccccc2c2cc(C(=O)NNS(=O)(=O)c3ccc(F)cc3)sc21 | 23.1 µM [falling, single point] | –
COc1cc(OC)c(NC(=O)C2CC(=O)N(c3ccc4c(c3)OCCO4)C2)cc1Cl (centres undefined) | 0.082 µM [rising, full curve, poor fit] | –
COc1ccc(/C=N/NC(=O)CN(CCc2ccccc2)S(=O)(=O)c2ccc(NC(C)=O)cc2)cc1OC | 4.61 µM [rising, full curve] | –

More results

SMILES | AC50 [1] | AC50 [2]
O=C1CCCC(O)=C1N=Nc1ccc(Cl)c(Cl)c1 | 10 µM [falling, partial curve, poor fit] | –
CC(=O)Oc1ccccc1C(=O)Nc1ncc([N+](=O)[O-])s1 | 0.1 µM [falling, full curve, poor fit] | –
CCOc1ccccc1NC(=O)CN(c1ccc(C)cc1)S(=O)(=O)c1c(C)n[nH]c1C | 29.1 µM [falling, single point] | –
Cn1cccc1C(=O)NC(=O)COC(=O)c1ccc(O)cc1 | 18.4 µM [falling, single point] | –
CN(C)CCCNC(=O)/C(=N\O)c1ccccc1 | 29.1 µM [rising, single point] | –
O=C(/C=C/c1ccc(-c2ccc(F)cc2)o1)N1CCCC1 | 0.0891 µM [rising, full curve, poor fit] | –
Cc1ccc2oc(-c3cccc(NC(=O)c4ccc(Br)o4)c3)nc2c1 | 29.1 µM [rising, single point] | –
CCOCc1nnc(NC(=O)C2CCN(C(=O)c3ccco3)CC2)s1 | 11.2 µM [falling, partial curve, poor fit] | –
O=P(CCCCCCCCCP(=O)(c1ccccc1)c1ccccc1)(c1ccccc1)c1ccccc1 | 29.1 µM [falling, single point] | –
COc1ccc(-c2csc(NC(=O)CSC(C)C(=O)Nc3cc(C)on3)n2)cc1OC (centres undefined) | 14.6 µM [rising, partial curve, poor fit] | –
O=C(CC(Nc1ccccc1)c1ccc(F)cc1)c1ccccc1 (centres undefined) | 29.1 µM [falling, single point] | –
O=C(N1CCOCC1)N1CCC(c2nc(-c3ccc(S(=O)(=O)N4CCOCC4)cc3)no2)CC1 | 29.1 µM [rising, single point] | –
O=S(=O)(c1cccs1)N1CN(C2CCCCC2)c2nc3ccccc3nc21 | 0.891 µM [falling, partial curve, poor fit] | –
Cc1nc2ccc(Oc3ccccc3)cc2s1 | 7.31 µM [rising, partial curve] | –
CCCCCC(=O)N1CC2(CC(c3cccc(NC(=O)COc4ccc(Cl)cc4)c3)=NO2)C[C@@H]1C(N)=O (some centres undefined) | 11.2 µM [falling, single point] | –
Cc1cc(C(=O)CCC(=O)NCC2COc3ccccc3O2)c(C)s1 (centres undefined) | 20.6 µM [rising, single point] | –
C=C(C)COc1ccc2c(CC)cc(=O)oc2c1 | 1.26 µM [rising, partial curve, poor fit] | –
O=C(CN1CCC(C(=O)c2ccc3c(c2)OCCO3)CC1)NCc1ccccc1 | 22.4 µM [falling, single point] | –
Cc1ccccc1OCC(O)Cn1c(SC(C)C)nc2c1c(=O)[nH]c(=O)n2C (centres undefined) | 0.447 µM [rising, partial curve, poor fit] | –
COc1ccccc1C(=O)Nc1cccc(SC)c1 | 29.1 µM [falling, single point] | –
CCCC(=O)Nc1nc(-c2ccc(OC)cc2)cs1 | 3.66 µM [rising, single point] | –
CC(=O)Oc1ccc(NC(=O)C2CCCCC2)c(C(=O)O)c1 | 0.731 µM [falling, full curve] | –

SMILES | AC50 [1] | AC50 [2]
O=C1/C(=C\c2ccco2)SC(=S)N1c1ccc(O)cc1 | 20.6 µM [falling, partial curve, poor fit] | –
COC(=O)c1ccc(C)c(NS(=O)(=O)c2ccc(OC)cc2)c1 | 13 µM [rising, partial curve, poor fit] | 8.2 µM [falling, partial curve]
NS(=O)(=O)c1ccc(CNC(=O)c2ccc(NS(=O)(=O)c3ccc4[nH]c(=O)[nH]c4c3)cc2)cc1 | 16.4 µM [rising, single point] | –
COc1ccc(NS(=O)(=O)c2cccc(C(=O)NNC(=O)CNC(=O)c3ccccc3)c2)cc1 | 15.8 µM [rising, single point] | –
O=C1C=C(c2ccc3ccccc3c2)C[C@@H](c2ccc(F)cc2)C1 | 10.3 µM [rising, partial curve] | –
Cc1cc2ccccc2nc1SCC(=O)NC1CCCCC1 | 0.1 µM [rising, full curve, poor fit] | 3.55 µM [rising, full curve, poor fit]
Cc1[nH][nH]c(=O)c1C(c1ccc(O)c(Br)c1)c1c(C)[nH][nH]c1=O | 7.94 µM [falling, partial curve] | –
N/C(=N\N=C\c1ccc(O)cc1)c1nonc1N | 7.94 µM [falling, partial curve] | –
COC(=O)c1ccc(COC(=O)c2ccc(S(=O)(=O)N3CCC(C)CC3)cc2)o1 | 5.8 µM [falling, partial curve, poor fit] | –
COc1cccc(-c2ncc3ccccc3c2COC(=O)c2ccccc2C(=O)O)c1 | 18.4 µM [falling, partial curve, poor fit] | –
Cc1ccccc1OCCn1cc(C(=O)O)c2ccccc21 | 25.1 µM [falling, single point] | –
Cc1nc2ccccc2c(=O)n1N | 5.62 µM [falling, single point] | –
Cc1cc(Oc2ccc(=O)[nH]n2)nc(Cl)n1 | 5.62 µM [rising, single point] | –
O=C(c1ccccc1)c1ccc(OCCOCCN2CCN(Cc3ccccc3)CC2)cc1 | 10 µM [falling, partial curve] | –
Cc1cc(C)c(C)c(OCCN2CCOCC2)c1 | 35.5 µM [rising, partial curve, poor fit] | –
COC(=O)COc1ccc(-c2nn(C)c(=O)c3ccccc23)cc1 | 0.00517 µM [rising, full curve, poor fit] | –
O=C(Nc1ccccc1)C1=C(O)CC(c2ccc(Cl)cc2)N2CCN=C12 (centres undefined) | 29.1 µM [falling, partial curve, poor fit] | –
COc1ccc(-c2sc3cc4c(cc3c2C#CCO)OCO4)cc1 | 0.517 µM [rising, full curve] | –
C=CCOC(=O)/C(=C\C=C\c1ccccc1)NC(=O)c1ccccc1 | 1.3 µM [falling, full curve, poor fit] | –
Cc1c(NC(=O)c2c([N+](=O)[O-])cnn2C)c(=O)n(-c2ccccc2)n1C | 35.5 µM [rising, single point] | –
O=C(Nc1c(C(=O)c2ccccc2)oc2ccccc12)c1cc(-c2ccccc2O)n[nH]1 | 18.4 µM [falling, partial curve] | 16.4 µM [falling, single point]

Source: PubChem BioAssay AID493014 (National Center for Advancing Translational Sciences (NCATS), 2011)
